Patent US5550110A (Warner-Lambert Company, priority 1994, dated 1996)

Assay: general procedure: Boc solid-phase peptide synthesis; PAM or MBHA resin; N-α-Boc-Trp-PAM resin (0.70 meq/g); dicyclohexylcarbodiimide; activated esters or anhydrides of N-alpha-Boc amino ac
Conditions: late stage modification step, RP-HPLC, capillary electrophoresis, TLC, NMR, FAB-MS

With “PEPTIDE1{[ac].[D-Bhg].L.D.I.I.W}$$$$V2.0” the “purity (crude or final not stated)” value was 99%.

Strings that start with PEPTIDE1 are HELM notation: dots part the residues, brackets hold end groups and non-standard residues.
